# Results from publication PMC8774185, “Open-Bundle Structure as the Unfolding Intermediate of Cytochrome c′ Revealed by Small Angle Neutron Scattering” (Biomolecules, 2022).
# No constants are given. Whether binding was seen depends on the method and setting.
# Key:
# [1] = target: Cytochrome c′ from Alcaligenes xylosoxidans NCIMB 11015 (Alcaligenes xylosoxidans NCIMB 11015) (UniProt P00138); assay: small-angle neutron scattering (SANS); 5.5 mg/mL Cyt c′ in D2O, phosphate buffer with DCl, pD 1.7; KWS-1 beam line; Debye function fit; this sample is the standard for the MW ratios; both purified
# [2] = target: Cytochrome c′ from Alcaligenes xylosoxidans NCIMB 11015 (Alcaligenes xylosoxidans NCIMB 11015) (UniProt P00138); assay: small-angle neutron scattering (SANS); 5.3 mg/mL Cyt c′ in D2O, phosphate buffer with NaOD, pD ~13; KWS-1 beam line; MW ratio from I(0)/C against the pD 1.7 sample; joint-clubs model and ab initio bead model; both purified
binder,measurement,setting,value
"Cytochrome c′ from Alcaligenes xylosoxidans NCIMB 11015 (natural protein, UniProt P00138 1-127, looked up, heme prosthetic group embedded in the C-terminal region, Cytochrome c′ (c-type cytochrome, four-α-helix bundle) of Alcaligenes xylosoxidans NCIMB 11015; helices A(Ala3-Lys31), B(Asp37-Phe59), C(Ala76-Asp98), D(Asp103-Arg124); His120 axial ligand; crystal structures PDB 4WGZ and 4WGY are of the same protein; also called Cyt c′; Cyt c') QFAKPEDAVKYRQSALTLMASHFGRMTPVVKGQAPYDAAQIKANVEVLKTLSALPWAAFGPGTEGGDARPEIWSDAASFKQKQQAFQDNIVKLSAAADAGDLDKLRAAFGDVGASCKACHDAYRKKK",binding,[1],no binding (condition: at pD 1.7 (5.5 mg/mL))
same,binding,[2],no binding (condition: at pD ~13 (5.3 mg/mL))
